Results are given in words; binding and its absence hold for the method and conditions named. Binding seen in cells or lysates may run through a third protein. Some entries that bind do so weakly or less than the wild type. Where a sequence is shown, tags or fusion partners need not be part of it.

This passage reports binding results from publication PMC10362728.

This assay deals with T1, Flag-tagged retinoic acid-inducible gene I (RIG-I) (UniProt Q6Q899).
T1 sequence: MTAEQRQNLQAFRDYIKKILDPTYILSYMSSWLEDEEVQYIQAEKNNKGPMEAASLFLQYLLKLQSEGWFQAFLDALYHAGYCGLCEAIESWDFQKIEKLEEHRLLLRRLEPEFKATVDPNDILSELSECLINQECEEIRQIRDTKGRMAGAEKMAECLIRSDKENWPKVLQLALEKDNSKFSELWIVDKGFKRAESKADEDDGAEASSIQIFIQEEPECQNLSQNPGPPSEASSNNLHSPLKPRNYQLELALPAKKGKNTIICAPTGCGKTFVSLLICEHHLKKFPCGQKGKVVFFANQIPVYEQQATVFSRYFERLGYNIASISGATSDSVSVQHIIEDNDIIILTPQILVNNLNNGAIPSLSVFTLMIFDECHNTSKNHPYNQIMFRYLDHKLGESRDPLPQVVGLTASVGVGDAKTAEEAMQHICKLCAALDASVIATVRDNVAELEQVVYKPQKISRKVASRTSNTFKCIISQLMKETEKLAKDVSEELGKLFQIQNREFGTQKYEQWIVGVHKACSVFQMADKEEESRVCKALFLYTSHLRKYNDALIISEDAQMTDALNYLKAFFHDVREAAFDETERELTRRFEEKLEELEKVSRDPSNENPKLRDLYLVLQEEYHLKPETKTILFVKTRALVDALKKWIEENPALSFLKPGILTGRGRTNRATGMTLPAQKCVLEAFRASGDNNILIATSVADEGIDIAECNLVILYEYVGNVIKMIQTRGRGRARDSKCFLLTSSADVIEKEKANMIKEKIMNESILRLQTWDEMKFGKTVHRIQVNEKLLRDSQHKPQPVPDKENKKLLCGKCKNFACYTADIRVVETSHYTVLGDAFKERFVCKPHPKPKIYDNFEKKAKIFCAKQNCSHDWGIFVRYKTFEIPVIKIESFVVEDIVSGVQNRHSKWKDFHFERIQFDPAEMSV
In words: co-IP; HEK-293T cells co-transfected with pCAGGS-Flag-RIG-I and pCAGGS-Rnf19a, collected 48 h after transfection; lysate pre-cleared with IgG and protein A + G agarose, then incubated with DDDDK-Tag (anti-Flag) antibody and protein A + G agarose overnight at 4 °C; washed five times with PBS; immunoblot with anti-Flag and anti-Rnf19a antibodies.

B1: ring finger protein 19A (Rnf19a) (enzyme, UniProt P50636 1-840)
chain: MQEQEISFIFKYNEGLCMNIDSDSILMSILDMSLHQQMGSDRDLQSSTSSVSLPSVKKAPKQRRISIGSLFRRKKDSKRKSRELNGGVDGIASIESIHSEMCADKNSIFSTNTSSDNGLTSISKQIGDFIECPLCLLRHSKDRFPDIMTCHHRSCVDCLRQYLRIEISESRVNISCPECTERFNPHDIRLILSDDVLMEKYEEFMLRRWLVADPDCRWCPAPDCGYAVIAFGCASCPKLTCGREGCGTEFCYHCKQIWHPNQTCDAARQERAQSLRLRTIRSSSISYSQESGAAADDIKPCPRCAAYIIKMNDGSCNHMTCAVCGCEFCWLCMKEISDLHYLSPSGCTFWGKKPWSRKKKILWQLGTLVGAPVGIALIAGIAIPAMIIGIPVYVGRKIHNRYEGKDVSKHKRNLAIAGGVTLSVIVSPVVAAVTVGIGVPIMLAYVYGVVPISLCRSGGCGVSAGNGKGVRIEFDDENDINVGGTNAAIDTTSVAEARHNPSIGEGSVGGLTGSLSASGSHMDRIGTIRDNLSETASTMALAGASITGSLSGSAMVNCFNRLEVQADVQKERCSLSGESGTVSLGTVSDNASTKAMAGSILNSYIPLDREGNSMEVQVDIESKPFKFRHNSGSSSVDDSGATRGHTGGASSGLPEGKSSATKWSKEATGGKKSKSGKLRKKGNMKINETREDMDAQLLEQQSTNSSEFEAPSLSDSMPSVADSHSSHFSEFSCSDLESMRTSCSHGSSDCHARFTAVNTLPEVENDRLENSPHQCSSALLSKAASCSDVPQPSHAADEHGTSRSGGKPMVDLCFGDALRETNNNHSHQTADLKVAVQTEI
On to B1, for which the binding result was “binds”.
